Experimental data from paper doi:10.1101/2020.12.02.409078.
No constants are given. Whether binding was seen depends on the method and setting. Binding seen in cells or lysates may run through a third protein. Some binding calls cover weakened binding; strength is not graded here.

By UniProt entry, the sequences of proteins in these tests, tags left out.
UniProt Q62433: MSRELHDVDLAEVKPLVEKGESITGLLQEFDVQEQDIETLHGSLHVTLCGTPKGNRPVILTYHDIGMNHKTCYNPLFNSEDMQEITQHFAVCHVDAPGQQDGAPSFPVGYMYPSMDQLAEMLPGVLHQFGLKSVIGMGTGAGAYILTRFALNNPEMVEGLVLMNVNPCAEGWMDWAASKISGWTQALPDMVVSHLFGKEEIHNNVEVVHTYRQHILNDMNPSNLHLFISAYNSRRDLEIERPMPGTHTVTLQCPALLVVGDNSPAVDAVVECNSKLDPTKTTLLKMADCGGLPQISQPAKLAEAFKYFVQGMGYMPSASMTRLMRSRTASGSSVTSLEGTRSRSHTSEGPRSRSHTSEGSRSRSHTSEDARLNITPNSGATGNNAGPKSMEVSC
UniProt P70168: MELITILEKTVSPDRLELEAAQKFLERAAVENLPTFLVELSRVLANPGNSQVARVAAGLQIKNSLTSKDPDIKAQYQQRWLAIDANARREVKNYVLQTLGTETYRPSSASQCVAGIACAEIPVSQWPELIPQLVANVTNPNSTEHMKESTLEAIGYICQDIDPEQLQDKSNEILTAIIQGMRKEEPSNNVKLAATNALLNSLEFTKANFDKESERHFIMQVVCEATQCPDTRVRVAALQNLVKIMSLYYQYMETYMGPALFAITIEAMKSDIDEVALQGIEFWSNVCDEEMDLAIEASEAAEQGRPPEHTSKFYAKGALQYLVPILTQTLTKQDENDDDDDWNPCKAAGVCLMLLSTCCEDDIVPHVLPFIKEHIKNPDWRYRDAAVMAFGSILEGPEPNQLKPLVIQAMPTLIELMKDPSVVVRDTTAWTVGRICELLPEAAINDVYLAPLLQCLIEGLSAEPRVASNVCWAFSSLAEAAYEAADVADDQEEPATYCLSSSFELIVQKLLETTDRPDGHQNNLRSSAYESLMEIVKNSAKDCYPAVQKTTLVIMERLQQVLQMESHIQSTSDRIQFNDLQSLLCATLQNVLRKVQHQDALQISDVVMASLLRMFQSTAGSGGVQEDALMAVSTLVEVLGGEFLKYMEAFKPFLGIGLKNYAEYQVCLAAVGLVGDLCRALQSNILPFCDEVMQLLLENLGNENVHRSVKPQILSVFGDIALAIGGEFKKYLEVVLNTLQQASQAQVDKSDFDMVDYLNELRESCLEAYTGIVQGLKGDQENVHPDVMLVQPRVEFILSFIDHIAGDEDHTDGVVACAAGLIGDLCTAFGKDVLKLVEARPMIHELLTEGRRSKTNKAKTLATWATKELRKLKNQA
UniProt Q60960: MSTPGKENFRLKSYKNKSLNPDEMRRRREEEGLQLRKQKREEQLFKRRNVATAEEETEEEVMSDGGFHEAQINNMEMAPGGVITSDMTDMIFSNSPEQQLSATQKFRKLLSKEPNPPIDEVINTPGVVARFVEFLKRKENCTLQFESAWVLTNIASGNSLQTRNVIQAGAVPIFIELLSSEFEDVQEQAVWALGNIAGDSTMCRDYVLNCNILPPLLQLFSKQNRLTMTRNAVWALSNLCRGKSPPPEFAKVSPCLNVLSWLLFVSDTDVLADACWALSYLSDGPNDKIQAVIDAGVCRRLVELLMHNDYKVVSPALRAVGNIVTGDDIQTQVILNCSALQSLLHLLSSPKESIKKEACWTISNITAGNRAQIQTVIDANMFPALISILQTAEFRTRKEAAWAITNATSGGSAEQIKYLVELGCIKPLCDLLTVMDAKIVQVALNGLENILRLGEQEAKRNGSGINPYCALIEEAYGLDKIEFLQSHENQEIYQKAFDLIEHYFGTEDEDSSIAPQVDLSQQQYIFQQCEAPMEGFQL
UniProt O35344: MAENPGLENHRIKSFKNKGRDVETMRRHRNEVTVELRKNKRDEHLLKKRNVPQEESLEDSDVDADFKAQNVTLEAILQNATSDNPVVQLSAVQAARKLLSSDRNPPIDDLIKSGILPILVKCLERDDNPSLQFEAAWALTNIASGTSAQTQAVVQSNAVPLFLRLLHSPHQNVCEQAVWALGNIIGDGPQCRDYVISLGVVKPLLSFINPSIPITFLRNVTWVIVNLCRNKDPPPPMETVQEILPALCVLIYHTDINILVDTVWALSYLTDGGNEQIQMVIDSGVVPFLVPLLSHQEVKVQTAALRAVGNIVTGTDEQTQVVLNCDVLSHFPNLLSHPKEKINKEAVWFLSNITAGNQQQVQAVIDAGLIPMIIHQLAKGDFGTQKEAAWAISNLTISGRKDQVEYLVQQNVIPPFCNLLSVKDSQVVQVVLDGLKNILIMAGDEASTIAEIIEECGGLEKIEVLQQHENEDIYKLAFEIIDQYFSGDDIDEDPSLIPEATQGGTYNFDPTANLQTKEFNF
UniProt O35343: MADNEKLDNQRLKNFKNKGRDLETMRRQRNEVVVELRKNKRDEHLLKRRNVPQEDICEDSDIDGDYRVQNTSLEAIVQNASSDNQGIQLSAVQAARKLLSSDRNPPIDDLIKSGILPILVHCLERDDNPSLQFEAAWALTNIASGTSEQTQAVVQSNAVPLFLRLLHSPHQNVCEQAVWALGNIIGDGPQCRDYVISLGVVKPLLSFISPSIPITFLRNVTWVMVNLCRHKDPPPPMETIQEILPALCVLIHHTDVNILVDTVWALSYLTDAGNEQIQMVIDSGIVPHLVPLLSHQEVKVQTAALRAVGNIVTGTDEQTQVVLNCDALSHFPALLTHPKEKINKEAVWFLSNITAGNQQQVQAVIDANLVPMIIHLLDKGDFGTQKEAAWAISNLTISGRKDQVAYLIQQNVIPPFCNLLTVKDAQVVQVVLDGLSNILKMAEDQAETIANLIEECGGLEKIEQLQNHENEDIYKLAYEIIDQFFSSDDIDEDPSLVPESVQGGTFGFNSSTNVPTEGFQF
UniProt Q9EPL8: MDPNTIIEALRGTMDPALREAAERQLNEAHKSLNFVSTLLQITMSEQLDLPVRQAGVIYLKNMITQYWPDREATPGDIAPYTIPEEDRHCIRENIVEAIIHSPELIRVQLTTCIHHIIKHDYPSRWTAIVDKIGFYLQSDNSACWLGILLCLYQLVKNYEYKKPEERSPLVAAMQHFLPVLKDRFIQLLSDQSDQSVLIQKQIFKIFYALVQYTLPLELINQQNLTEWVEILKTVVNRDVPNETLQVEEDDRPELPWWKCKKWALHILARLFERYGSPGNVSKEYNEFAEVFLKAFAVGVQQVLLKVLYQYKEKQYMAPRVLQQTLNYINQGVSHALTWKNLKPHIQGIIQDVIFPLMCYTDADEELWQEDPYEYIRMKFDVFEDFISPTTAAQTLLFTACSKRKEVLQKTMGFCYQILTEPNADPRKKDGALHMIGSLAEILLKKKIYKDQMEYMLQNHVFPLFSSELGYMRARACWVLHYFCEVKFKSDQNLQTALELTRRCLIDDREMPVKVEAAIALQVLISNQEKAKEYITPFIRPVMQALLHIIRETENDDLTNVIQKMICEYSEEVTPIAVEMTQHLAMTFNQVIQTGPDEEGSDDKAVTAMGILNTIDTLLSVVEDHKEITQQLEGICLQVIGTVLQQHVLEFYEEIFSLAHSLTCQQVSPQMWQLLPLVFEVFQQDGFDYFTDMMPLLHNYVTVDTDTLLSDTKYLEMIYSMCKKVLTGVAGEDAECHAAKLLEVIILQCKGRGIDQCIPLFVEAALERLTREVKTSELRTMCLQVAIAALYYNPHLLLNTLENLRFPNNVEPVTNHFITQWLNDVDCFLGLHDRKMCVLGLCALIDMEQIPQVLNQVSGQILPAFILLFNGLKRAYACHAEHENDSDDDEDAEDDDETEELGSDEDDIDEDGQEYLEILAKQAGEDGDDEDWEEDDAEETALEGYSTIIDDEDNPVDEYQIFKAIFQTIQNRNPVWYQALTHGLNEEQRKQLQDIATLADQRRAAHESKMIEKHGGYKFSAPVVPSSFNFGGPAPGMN

target: N-myc downstream regulated gene1 (NDRG1) (mouse (endogenous in forebrain synaptosomes)) (UniProt Q62433); experiment: co-IP

| binding | Substance |
| --- | --- |
| binds | importin-β1 (from UniProt P70168 1-876) |

target: importin-β1 (mouse (endogenous in forebrain synaptosomes)) (UniProt P70168); experiment: co-IP

| binding | Substance |
| --- | --- |
| binds | Imp-α1 (from UniProt Q60960 1-538) |
| binds | Imp-α3 (from UniProt O35344 1-521) |
| binds | Imp-α4 (from UniProt O35343 1-521) |
| binds | Imp-α6 (from UniProt O35345 1-536) |
| binds | importin-7 (from UniProt Q9EPL8 1-1038) |
